According to PMC12431861:
These are yes or no findings as the source states them, for the method shown. Binding seen in cells or lysates may run through a third protein. Here binding means that the protein was enriched with, or labelled near, the bait; the list need not be complete. For some assays here: Sequences can lack the tags named with a protein.

Chains of the proteins cited; added tags and fusions are not shown.
UniProt Q8BX22: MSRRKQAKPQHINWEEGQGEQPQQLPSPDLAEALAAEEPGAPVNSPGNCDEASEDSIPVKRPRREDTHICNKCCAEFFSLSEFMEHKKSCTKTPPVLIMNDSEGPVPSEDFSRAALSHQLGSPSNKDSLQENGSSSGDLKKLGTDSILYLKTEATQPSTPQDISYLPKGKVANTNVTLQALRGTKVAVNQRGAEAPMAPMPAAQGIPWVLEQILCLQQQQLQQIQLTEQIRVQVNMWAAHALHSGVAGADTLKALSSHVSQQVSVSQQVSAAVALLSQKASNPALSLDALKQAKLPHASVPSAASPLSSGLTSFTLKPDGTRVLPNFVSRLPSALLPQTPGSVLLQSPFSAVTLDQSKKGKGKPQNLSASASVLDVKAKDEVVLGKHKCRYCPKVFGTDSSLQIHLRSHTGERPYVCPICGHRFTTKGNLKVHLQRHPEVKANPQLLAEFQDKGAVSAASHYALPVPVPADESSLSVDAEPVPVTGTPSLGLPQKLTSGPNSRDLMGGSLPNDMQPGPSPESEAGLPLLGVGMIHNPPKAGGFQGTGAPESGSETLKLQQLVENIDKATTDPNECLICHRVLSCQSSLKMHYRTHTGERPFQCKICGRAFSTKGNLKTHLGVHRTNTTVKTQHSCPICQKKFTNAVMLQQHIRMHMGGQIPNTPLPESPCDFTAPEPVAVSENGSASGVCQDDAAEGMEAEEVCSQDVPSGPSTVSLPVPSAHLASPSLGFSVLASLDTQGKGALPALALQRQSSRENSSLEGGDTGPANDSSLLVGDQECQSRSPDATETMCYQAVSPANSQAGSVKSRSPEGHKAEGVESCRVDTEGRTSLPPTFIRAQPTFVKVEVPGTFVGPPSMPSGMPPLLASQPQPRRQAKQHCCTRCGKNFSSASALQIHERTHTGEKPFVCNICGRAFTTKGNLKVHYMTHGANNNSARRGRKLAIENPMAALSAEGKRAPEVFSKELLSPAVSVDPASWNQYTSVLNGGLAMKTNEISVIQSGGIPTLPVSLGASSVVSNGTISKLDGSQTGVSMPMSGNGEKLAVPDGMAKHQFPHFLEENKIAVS
UniProt Q64511: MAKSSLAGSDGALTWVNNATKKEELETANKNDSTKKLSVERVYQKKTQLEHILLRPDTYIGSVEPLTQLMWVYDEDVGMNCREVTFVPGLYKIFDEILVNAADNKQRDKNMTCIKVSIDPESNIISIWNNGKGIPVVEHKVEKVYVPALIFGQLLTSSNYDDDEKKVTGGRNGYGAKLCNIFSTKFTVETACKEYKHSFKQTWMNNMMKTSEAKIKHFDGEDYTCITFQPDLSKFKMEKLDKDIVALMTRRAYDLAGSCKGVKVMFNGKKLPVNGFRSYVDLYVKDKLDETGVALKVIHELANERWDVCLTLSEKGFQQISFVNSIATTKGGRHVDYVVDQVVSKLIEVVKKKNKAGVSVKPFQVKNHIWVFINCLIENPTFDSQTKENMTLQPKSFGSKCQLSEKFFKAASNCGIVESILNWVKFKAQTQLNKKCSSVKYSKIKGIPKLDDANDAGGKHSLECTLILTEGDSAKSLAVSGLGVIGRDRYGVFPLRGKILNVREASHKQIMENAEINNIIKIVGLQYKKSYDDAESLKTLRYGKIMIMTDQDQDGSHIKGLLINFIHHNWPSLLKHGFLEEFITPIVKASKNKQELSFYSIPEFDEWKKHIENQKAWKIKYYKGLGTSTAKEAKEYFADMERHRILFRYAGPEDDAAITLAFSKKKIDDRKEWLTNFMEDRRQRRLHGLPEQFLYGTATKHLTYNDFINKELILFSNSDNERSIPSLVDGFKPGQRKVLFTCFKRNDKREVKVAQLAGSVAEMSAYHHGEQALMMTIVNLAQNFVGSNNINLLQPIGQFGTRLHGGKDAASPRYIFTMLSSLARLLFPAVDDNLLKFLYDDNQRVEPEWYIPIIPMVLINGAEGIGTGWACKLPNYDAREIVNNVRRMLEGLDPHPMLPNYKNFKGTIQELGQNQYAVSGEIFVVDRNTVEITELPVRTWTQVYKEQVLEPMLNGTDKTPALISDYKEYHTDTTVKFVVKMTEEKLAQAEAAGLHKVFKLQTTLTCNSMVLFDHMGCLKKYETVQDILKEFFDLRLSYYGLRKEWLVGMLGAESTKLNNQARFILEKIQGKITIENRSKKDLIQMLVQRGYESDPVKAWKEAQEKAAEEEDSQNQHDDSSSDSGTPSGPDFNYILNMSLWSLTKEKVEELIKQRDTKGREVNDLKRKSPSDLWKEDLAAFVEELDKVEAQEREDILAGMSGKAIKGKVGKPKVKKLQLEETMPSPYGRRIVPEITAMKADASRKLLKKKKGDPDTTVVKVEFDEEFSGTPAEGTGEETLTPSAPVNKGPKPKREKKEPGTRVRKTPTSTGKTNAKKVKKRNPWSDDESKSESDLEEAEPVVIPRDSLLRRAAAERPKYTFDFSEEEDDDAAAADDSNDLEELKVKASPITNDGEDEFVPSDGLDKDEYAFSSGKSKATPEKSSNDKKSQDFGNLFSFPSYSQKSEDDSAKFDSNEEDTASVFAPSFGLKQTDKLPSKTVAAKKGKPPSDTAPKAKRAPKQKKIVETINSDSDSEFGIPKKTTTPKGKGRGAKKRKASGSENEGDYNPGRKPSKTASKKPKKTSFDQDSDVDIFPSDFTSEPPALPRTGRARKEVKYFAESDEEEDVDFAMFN
UniProt Q91ZW3: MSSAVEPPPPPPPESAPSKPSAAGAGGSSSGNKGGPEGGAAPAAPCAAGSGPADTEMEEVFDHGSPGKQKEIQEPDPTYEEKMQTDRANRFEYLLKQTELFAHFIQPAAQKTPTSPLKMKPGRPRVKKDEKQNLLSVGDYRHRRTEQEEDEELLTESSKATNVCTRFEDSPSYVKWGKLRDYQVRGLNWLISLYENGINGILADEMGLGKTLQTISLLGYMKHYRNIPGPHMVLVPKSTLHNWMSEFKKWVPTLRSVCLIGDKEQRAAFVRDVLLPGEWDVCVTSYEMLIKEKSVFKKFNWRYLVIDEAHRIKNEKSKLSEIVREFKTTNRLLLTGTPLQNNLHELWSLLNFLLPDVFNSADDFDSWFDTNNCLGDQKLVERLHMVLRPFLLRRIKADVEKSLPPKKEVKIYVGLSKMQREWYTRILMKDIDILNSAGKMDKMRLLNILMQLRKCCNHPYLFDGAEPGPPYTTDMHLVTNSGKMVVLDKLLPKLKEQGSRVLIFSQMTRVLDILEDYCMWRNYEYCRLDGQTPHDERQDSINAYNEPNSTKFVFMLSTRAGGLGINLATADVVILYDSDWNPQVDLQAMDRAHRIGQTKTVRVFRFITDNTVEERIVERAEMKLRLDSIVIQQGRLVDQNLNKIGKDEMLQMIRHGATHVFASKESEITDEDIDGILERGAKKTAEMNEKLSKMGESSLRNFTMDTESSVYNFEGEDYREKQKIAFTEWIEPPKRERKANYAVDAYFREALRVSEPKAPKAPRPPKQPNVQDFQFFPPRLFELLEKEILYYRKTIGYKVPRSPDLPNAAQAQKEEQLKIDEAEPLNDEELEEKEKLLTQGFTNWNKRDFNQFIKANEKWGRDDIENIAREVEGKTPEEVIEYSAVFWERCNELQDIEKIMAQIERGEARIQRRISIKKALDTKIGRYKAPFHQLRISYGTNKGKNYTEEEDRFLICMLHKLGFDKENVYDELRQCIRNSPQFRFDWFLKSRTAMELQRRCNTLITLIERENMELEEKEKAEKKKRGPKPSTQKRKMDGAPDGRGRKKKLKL
UniProt Q80U70: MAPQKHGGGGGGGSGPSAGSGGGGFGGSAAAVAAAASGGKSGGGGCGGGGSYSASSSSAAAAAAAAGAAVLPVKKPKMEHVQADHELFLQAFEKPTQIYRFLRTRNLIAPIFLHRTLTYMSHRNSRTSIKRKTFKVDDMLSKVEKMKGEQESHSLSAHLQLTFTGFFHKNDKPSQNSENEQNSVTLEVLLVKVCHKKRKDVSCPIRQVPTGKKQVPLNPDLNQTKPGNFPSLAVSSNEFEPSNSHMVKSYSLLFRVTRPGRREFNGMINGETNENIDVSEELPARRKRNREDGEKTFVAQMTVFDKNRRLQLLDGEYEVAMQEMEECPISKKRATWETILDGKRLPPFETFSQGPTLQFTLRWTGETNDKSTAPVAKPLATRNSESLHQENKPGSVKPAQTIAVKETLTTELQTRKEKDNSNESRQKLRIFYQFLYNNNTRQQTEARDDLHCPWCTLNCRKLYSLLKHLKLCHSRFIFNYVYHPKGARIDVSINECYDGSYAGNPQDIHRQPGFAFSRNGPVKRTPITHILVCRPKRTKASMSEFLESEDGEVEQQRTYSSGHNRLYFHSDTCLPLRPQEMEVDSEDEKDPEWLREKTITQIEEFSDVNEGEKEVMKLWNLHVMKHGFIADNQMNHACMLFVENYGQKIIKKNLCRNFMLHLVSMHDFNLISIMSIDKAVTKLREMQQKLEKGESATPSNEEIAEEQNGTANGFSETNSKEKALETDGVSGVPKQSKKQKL

T1: CCCTC-binding factor (CTCF), immunoprecipitated from ES and NS cell chromatin in ChIP-SICAP (mouse (endogenous in ES and NS cells)) (UniProt Q61164)
T1 sequence: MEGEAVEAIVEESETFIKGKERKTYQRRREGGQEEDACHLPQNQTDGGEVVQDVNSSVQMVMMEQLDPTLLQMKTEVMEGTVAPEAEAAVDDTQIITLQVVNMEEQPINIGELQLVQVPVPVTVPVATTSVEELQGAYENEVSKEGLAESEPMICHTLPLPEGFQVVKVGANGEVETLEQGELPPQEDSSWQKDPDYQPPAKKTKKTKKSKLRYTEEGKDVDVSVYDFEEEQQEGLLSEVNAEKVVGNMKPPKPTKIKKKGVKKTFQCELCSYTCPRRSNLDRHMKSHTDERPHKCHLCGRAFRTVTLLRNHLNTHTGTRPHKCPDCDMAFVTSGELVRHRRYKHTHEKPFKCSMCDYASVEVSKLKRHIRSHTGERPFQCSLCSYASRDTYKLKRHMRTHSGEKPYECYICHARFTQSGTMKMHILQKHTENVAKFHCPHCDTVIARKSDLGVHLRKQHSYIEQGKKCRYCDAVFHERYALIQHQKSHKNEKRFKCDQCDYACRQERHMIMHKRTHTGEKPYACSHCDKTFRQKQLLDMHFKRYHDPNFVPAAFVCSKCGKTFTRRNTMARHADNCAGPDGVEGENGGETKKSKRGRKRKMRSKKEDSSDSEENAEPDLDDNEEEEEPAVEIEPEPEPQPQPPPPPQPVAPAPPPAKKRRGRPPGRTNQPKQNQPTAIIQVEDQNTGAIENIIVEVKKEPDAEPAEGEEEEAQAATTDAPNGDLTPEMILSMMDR


molecular target: T1, CCCTC-binding factor (CTCF), immunoprecipitated from ES and NS cell chromatin in ChIP-SICAP (mouse (endogenous in ES and NS cells)); test: affinity purification with mass spectrometry; ChIP-SICAP: ES and NS cells fixed with 1.5% formaldehyde, chromatin sonicated, immunoprecipitated with anti-CTCF (D31H2), DNA biotinylated by TdT, eluted and recaptured on streptavidin beads, on-bead digestion, Orbitrap MS; abundances normalised to CTCF

binding	Molecule
binds	Sall4 (from UniProt Q8BX22 1-1067)
binds	topoisomerase 2B (from UniProt Q64511 1-1612)
binds	SWI/SNF family chromatin remodeller Smarca5 (from UniProt Q91ZW3 1-1051)
binds	Suz12 (from UniProt Q80U70 1-741)

molecular target: T1, CCCTC-binding factor (CTCF), immunoprecipitated from ES and NS cell chromatin in ChIP-SICAP (mouse (endogenous in ES and NS cells)); test: as above; remark: another data set of the same source

binding	Molecule
binds	Dppa4 (protein, UniProt Q8CCG4 1-296) METAGDKKWSAEEPKEEVELQMSSQPSTAPAKAKATGKKQKKSETDNGCKPKEGKPQDTETPGQTRRKVPIPPIPEYLPPVNLIHRDVLRAWCQKKRVSSKGQKLDAYKRLLARAFPEQMLELRNVPDSAKDARLKTAHKKMKTEPGEESEVTVPLEMVPVPEEQIPALIDPPMLYEEVSTTVVTTPATEAVLASWARIASNAKKYEAVPADASSSSEVKGEMWCVVHGTSLPGNSRGWVRLQFHAGQAWVPDKKGKAIALFLLPACTFPPPHLEDNMLCPKCVHKNKILTKSLEG
binds	Fiz1 (protein, UniProt Q9WTJ4 1-500) MEDSSLPVVPAPIAAPGPAPSATAPRVPFHCSECGKSFRYRSDLRRHFARHTALKPHACPRCGKGFKHSFNLANHLRSHTGERPYRCSACPKGFRDSTGLLHHQVVHTGEKPYCCLVCELRFSSRSSLGRHLKRQHRGTLPSPLQPSPGLPPLSSPCSVCCNVGPCSVCGGGGSSGGEGLEGAGATSWGLAEAAAAAAASLPPFACGACARRFDHGRELAAHWAAHTDVKPFKCPRCERDFNAPALLERHKLTHDLQGSNAPPTQVWASGGGPEVAGEGDASEVGAAPQTWDAGLLLSPTGAGVPKLEALLPGDEGSGNDQAPAAAAEASSEDTLYQCDCGTFFASAPALASHLEAHSGPATYGCGHCGALYAALAALEEHRRASHGEGSGEAAPDGEGNQAAGGPGPGSSSRSKKIFGCSECEKLFRSPRDLERHVLVHTGEKPFPCLECGKFFRHECYLKRHRLLHGTERPFPCHICGKGFITLSNLSRHLKLHRGMD
binds	Stag2 (protein, UniProt O35638 1-1231) MIAAPEIPTDFNLLQESETHFSSDTDFEDIEGKNQKQGKGKTCKKGKKGPAEKGKSGNGGGKPPSGSNRMNGHHQQNGVENMMLFEVVKMGKSAMQSVVDDWIESYKHDRDIALLDLINFFIQCSGCKGVVTAEMFRHMQNSEIIRKMTEEFDEDSGDYPLTMAGPQWKKFKSSFCEFIGVLVRQCQYSIIYDEYMMDTVISLLTGLSDSQVRAFRHTSTLAAMKLMTALVNVALNLSINMDNTQRQYEAERNKMIGKRANERLELLLQKRKELQENQDEIENMMNAIFKGVFVHRYRDAIAEIRAICIEEIGIWMKMYSDAFLNDSYLKYVGWTMHDKQGEVRLKCLTALQGLYYNKELNSKLELFTSRFKDRIVSMTLDKEYDVAVQAIKLLTLVLQSSEEVLTAEDCENVYHLVYSAHRPVAVAAGEFLYKKLFSRRDPEEDGLMKRRGRQGPNANLVKTLVFFFLESELHEHAAYLVDSMWDCATELLKDWECMNSLLLEEPLSGEEALTDRQESALIEIMLCTIRQAAECHPPVGRGTGKRVLTAKEKKTQLDDRTRITELFAVALPQLLAKYSVDAEKVTNLLQLPQYFDLEIYTTGRLEKHLDALLRQIRNIVEKHTDTDVLEACSKTYHALCNEEFTIFNRVDISRSQLIDELADKFNRLLEDFLQEGEEPDEDDAYQVLSTLKRITAFHNAHDLSKWDLFACNYKLLKTGIENGDMPEQIVIHALQCAHYVILWQLAKITESTSTKEDLLRLKKQMRVFCQICQHYLTNVNTTVKEQAFTILCDILMIFSHQIMSGGRDMLEPLVYTPDSSLQSELLSFILDHVFIEQDDDSNSADGQQEDEASKIEALHKRRNLLAAFCKLIVYTVVEMNTAADIFKQYMKYYNDYGDIIKETMSKTRQIDKIQCAKTLILSLQQLFNEMIQENGYNFDRSSSTFSGIKELARRFALTFGLDQLKTREAIAMLHKDGIEFAFKEPNPQGESHPPLNLAFLDILSEFSSKLLRQDKRTVYVYLEKFMTFQMSLRREDVWLPLMSYRNSLLAGGDDDTMSVISGMSSRGSTVRSKKSKPSTGKRKVVEGMQLALPEESSSSDSMWLSREQTLHTPVMMQTPQLTSTIMREPKRLRPEDSFMSVYPMQAEHHQTPLDYNRRGTSLMEDDEEPIVEDVMMSSEGRIEDLNEGMDFDTMDIDLPPSKNRRERTELKPDFFDPASIMDESVLGVSMF
binds	Pds5a (protein, UniProt Q6A026 1-1332) MDFTQPKPATALCGVVSADGKIAYPPGVKEITDKITTDEMIKRLKMVVKTFMDMDQDSEDEKQQYLPLALHLASEFFLRNPNKDVRLLVACCLADIFRIYAPEAPYTSHDKLKDIFLFITRQLKGLEDTKSPQFNRYFYLLENLAWVKSYNICFELEDCNEIFIQLFRTLFSVINNSHNTKVQMHMLDLMSSIIMEGDGVTQELLDSILINLIPAHKNLNKQSFDLAKVLLKRTVQTIEACIANFFNQVLVLGRSSVSDLSEHVFDLIQELFAIDPQLLLSVMPQLEFKLKSNDGEERLAVVRLLAKLFGSKDSDLATQNRPLWQCFLGRFNDIHVPVRLESVKFASHCLMNHPDLAKDLTEYLKVRSHDPEEAIRHDVIVTIITAAKRDLALVNDQLLGFVRERTLDKRWRVRKEAMMGLAQLYKKYCLHGEAGKEAAEKVSWIKDKLLHIYYQNSIDDKLLVEKIFAQYLVPHNLETEERMKCLYYLYASLDPNAVKALNEMWKCQNMLRSHVRELLDLHKQPTSEANCSAMFGKLMTIAKNLPDPGKAQDFVKKFNQVLGDDEKLRSQLELLISPTCSCKQADVCVREIARKLANPKQPTNPFLEMVKFLLERIAPVHIDSEAISALVKLMNKSIEGTADDEEEGVSPDSAIRSGLELLKVLSFTHPTSFHSAETYESLLQCLRMEDDKVAEAAIQIFRNTGHKIETDLPQIRSTLIPILHQKAKRGTPHQAKQAVHCIHAIFSNKEVQLAQIFEPLSRSLNADVPEQLITPLVSLGHISMLAPDQFASPMKSVVANFIVKDLLMNDRSTGEKNGKLWSPDEEVSPEVLAKVYLLRLLVRWLLGMKNNQSKSANSTLRLLSAMLVSEGDLTEQKRISKSDMSRLRLAAGSAIMKLAQEPCYHEIITPEQFQLCALVINDECYQVRQIFAQKLHKALVKLLLPLEYMAIFALCAKDPVKERRAHARQCLLKNISIRREYIKQNPMATEKLLSLLPEYVVPYMIHLLAHDPDFTRSQDVDQLRDIKECLWFMLEVLMTKNENNSHAFMKKMAENIKLTRDAQSPDESKTNEKLYTVCDVALCVINSKSALCNADSPKDPVLPMKFFTQPEKDFCNDKSYISEETRVLLLTGKPKPTGVLGTVNKPLSATGRKPYVRSAGTETGSNINANSELSPSAGSRSREQSSEASETGVSENEENPVRIISVTPVKNIDTVKNKEINSDQSTQGNISSDRGKKRIVTAAGAENIQKPDEKVDESGPPAPSKPRRGRRPKSESQGNATKNDDLNKPVSKGRKRAAGSQESLEAGNAKAPKLQDGAKKAVPAERQIDLQR

Further lines, the molecule ahead of its results:

Molecule	binding
Zbtb44 (protein, UniProt Q8R0A2 1-453) MGVKTFTHSSSSHSQEMLGKLNMLRNDGHFCDITIRVQDKIFRAHKVVLAACSDFFRTKLVGQTEDENKNVLDLHHVTVTGFIPLLEYAYTATLSINTENIIDVLAAASYMQMFSVASTCSEFMKSSILWNTPNSQPEKSLDAGQENSSNCNFTSRDGSISPVSSECSAVERTIPVCRESRRKRKSYIVMSPESPVKCSTQTSSPQVLNSSASYAENRSQPVDSSLAFPWTFPFGIDRRIQPEKAKQAENTRTLELPGPSEAGRRVADYVTCESTKPTLPLGTEEDVRVKVERLSDEEVHEEVSQPVSASQSSLSDQQTVPGSEPVQEDLLISPQSSSIGSVDEGVTEGLPTLQSTSSTNAHADDDDRLENVQYPYQLYIAPSTSSTERPSPNGPDRPFQCPTCGVRFTRIQNLKQHMLIHSGIKPFQCDCCGKKFTRAYSLKMHRLKHEVIS	binds
Non-POU Domain Containing Octamer Binding (Nono) (protein, UniProt Q99K48 1-473) MQSNKAFNLEKQNHTPRKHHQHHHQQHHQQQQQQQQQQPPPPIPANGQQASSQNEGLTIDLKNFRKPGEKTFTQRSRLFVGNLPPDITEEEMRKLFEKYGKAGEVFIHKDKGFGFIRLETRTLAEIAKVELDNMPLRGKQLRVRFACHSASLTVRNLPQYVSNELLEEAFSVFGQVERAVVIVDDRGRPSGKGIVEFSGKPAARKALDRCSEGSFLLTTFPRPVTVEPMDQLDDEEGLPEKLVIKNQQFHKEREQPPRFAQPGSFEYEYAMRWKALIEMEKQQQDQVDRNIKEAREKLEMEMEAARHEHQVMLMRQDLMRRQEELRRMEELHNQEVQKRKQLELRQEEERRRREEEMRRQQEEMMRRQQEGFKGTFPDAREQEIRMGQMAMGGAMGINNRGAMPPAPVPPGTPAPPGPATMMPDGTLGLTPPTTERFGQAATMEGIGAIGGTPPAFNRPAPGAEFAPNKRRRY	binds
Dppa2 (protein, UniProt Q9CWH0 1-301) MSYFGLETFNENQSEENLDEESVILTLVPFKEEEEPNTDYATQSNVSSSTLDHTPPARSLVRHAGIKHPTRTIPSTCPPPSLPPIRDVSRNTLREWCRYHNLSTDGKKVEVYLRLRRHSYSKQECYIPNTSREARMKQGPKKSKIVFRGIGPPSGCQRKKEESGVLEILTSPKESTFAAWARIAMRAAQSMSKNRCPLPSNVEAFLPQATGSRWCVVHGRQLPADKKGWVRLQFLAGQTWVPDTPQRMNFLFLLPACIIPEPGVEDNLLCPECVHSNKKILRNFKIRSRAKKNALPPNMPP	binds
